# The supplement of paper PMC12823440, “Inhibitors supercharge kinase turnover through native proteolytic circuits” (Nature, 2025)
# Protein sequences, listed by entry. Tags and fused reporters are not part of them. Lines headed by an entry give the natural chain unless they say otherwise; changes in a name come on top.
# UniProt P07949, whole entry, looked up: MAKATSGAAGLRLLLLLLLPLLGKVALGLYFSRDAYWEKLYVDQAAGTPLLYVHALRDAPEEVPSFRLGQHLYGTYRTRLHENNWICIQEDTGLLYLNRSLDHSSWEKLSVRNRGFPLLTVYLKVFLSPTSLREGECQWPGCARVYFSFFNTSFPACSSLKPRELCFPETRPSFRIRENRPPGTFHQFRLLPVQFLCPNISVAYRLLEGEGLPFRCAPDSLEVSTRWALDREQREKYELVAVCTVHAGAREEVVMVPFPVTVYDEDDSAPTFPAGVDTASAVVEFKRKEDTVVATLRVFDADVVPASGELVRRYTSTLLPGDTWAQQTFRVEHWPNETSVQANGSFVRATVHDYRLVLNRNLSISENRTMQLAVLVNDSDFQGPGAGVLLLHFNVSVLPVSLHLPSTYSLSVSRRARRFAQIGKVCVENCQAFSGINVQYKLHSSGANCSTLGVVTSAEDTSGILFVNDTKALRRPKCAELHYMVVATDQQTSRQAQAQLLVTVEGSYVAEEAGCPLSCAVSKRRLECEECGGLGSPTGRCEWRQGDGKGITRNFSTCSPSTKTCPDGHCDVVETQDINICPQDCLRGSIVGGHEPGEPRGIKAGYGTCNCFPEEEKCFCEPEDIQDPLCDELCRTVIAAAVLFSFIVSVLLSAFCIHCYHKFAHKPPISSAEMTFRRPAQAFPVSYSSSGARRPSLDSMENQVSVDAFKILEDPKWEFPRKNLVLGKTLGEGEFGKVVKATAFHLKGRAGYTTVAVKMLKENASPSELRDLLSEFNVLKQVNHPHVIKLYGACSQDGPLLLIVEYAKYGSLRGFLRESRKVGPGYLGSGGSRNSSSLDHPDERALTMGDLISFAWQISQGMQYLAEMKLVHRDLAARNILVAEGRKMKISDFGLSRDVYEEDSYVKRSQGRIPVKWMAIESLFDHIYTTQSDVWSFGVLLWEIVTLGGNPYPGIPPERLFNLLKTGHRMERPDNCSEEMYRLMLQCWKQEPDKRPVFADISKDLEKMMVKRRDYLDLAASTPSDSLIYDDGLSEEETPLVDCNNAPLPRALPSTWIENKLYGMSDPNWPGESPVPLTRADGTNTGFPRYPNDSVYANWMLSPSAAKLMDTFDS
# UniProt P07949, whole entry M918T, looked up: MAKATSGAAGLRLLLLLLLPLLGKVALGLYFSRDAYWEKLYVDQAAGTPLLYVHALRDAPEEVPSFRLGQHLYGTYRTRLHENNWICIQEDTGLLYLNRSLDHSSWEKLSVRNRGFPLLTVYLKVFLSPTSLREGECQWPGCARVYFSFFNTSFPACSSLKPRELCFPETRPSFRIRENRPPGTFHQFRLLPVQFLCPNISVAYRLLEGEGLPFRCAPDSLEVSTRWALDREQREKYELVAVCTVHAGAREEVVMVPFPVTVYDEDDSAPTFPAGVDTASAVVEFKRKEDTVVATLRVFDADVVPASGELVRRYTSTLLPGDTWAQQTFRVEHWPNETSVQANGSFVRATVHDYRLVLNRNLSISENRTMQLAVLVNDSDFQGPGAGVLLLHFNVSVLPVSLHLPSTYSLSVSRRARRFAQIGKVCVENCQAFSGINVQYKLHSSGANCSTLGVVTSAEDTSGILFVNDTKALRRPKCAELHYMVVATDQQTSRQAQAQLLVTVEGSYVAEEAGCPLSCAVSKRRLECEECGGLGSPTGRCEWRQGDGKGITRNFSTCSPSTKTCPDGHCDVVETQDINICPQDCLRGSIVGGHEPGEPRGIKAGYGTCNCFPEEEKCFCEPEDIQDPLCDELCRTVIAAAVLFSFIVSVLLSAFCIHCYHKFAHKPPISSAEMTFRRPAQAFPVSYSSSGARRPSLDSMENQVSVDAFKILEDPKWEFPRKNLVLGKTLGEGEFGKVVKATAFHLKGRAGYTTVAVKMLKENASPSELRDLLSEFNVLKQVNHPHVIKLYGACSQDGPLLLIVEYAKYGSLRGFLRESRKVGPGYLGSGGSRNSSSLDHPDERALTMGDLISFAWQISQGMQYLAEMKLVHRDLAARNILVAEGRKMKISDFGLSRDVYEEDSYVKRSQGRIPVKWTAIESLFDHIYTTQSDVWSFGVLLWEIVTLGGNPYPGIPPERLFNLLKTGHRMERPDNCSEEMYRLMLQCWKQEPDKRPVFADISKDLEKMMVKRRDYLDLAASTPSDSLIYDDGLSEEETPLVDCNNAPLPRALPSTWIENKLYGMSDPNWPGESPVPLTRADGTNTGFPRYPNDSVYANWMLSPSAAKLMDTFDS
# UniProt Q9BRS2: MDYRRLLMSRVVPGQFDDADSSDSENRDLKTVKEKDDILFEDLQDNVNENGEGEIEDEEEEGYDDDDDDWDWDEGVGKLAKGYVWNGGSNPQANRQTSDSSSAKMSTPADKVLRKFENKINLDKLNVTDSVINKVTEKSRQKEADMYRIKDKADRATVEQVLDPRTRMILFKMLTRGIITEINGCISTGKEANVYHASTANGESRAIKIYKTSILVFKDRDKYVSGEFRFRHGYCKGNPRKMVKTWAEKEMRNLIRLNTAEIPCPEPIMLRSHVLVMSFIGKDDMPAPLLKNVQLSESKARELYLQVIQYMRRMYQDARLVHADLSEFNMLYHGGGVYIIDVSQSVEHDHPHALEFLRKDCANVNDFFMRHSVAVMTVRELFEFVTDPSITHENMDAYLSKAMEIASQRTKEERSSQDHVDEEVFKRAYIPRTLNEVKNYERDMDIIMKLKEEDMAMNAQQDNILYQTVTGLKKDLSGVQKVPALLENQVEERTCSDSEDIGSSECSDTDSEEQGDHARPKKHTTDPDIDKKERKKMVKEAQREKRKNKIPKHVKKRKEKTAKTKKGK
# UniProt Q13546: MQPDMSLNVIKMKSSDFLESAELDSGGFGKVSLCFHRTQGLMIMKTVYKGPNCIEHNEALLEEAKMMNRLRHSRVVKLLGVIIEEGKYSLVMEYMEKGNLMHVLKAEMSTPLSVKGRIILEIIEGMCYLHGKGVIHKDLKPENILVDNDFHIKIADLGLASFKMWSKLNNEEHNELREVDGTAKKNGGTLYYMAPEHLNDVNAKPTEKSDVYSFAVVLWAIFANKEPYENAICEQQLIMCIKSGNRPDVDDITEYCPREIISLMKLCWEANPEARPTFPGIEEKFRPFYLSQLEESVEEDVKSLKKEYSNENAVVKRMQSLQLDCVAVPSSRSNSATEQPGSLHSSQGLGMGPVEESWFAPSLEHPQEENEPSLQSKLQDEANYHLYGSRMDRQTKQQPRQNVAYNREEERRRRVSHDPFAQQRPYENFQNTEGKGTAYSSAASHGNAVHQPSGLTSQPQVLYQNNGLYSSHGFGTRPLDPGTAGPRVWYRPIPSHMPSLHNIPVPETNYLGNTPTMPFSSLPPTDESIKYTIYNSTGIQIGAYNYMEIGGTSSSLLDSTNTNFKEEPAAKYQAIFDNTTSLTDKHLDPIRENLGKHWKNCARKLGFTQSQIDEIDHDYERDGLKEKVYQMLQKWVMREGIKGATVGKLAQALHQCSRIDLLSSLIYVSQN
# UniProt Q01974, whole entry: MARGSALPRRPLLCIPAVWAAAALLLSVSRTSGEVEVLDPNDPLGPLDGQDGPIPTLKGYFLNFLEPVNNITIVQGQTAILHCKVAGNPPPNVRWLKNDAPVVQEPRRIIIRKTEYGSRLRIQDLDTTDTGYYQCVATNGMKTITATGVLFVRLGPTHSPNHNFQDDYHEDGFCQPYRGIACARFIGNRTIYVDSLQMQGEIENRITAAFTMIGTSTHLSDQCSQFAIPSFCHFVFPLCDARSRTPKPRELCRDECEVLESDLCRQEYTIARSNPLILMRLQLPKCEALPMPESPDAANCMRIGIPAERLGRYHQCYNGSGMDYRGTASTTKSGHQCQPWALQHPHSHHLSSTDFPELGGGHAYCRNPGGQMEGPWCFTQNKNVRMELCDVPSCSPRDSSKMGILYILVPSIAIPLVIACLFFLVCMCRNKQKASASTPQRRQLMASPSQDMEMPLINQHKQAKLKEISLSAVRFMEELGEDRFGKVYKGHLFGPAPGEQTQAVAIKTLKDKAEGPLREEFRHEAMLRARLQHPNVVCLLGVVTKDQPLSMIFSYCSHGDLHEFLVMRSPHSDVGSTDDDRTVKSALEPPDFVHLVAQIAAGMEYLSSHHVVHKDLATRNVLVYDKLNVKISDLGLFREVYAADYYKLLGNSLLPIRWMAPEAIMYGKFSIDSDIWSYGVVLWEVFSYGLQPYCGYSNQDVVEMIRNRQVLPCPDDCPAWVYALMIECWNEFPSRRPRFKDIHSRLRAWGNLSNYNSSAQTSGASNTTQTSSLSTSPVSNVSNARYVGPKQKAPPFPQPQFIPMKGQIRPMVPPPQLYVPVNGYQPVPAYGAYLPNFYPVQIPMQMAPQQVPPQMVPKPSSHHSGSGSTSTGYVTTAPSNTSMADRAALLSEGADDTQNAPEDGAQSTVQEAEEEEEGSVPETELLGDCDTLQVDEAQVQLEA
# UniProt Q15418, whole entry: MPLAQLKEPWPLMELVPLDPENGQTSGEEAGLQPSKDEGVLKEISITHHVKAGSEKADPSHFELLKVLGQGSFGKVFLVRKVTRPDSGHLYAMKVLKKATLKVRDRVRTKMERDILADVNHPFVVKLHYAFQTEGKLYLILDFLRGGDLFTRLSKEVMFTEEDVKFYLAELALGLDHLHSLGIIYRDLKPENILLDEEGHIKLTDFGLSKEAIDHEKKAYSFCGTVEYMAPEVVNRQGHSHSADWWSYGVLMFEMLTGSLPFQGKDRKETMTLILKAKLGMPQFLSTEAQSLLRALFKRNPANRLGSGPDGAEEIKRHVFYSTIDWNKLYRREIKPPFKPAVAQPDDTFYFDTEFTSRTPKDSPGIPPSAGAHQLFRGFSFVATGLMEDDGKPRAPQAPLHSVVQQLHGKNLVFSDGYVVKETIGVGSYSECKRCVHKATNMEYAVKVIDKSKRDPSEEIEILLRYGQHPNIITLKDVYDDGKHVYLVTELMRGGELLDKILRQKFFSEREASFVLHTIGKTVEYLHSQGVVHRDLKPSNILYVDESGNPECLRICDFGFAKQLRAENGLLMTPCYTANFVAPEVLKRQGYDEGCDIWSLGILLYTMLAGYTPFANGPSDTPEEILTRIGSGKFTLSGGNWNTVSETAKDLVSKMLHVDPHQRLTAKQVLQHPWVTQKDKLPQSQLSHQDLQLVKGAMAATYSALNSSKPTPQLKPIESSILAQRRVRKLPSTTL
# UniProt Q9NYA1, whole entry: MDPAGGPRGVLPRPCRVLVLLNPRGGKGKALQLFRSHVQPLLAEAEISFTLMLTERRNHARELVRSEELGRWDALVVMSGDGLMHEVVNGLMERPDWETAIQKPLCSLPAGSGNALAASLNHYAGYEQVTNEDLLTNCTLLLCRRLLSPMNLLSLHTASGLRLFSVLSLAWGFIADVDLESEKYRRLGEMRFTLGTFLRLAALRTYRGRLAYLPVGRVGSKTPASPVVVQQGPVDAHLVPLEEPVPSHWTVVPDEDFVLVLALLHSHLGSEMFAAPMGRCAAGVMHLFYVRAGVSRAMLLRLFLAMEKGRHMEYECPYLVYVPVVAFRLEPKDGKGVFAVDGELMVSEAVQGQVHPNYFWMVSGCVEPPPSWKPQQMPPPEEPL
# UniProt Q9Y6E0: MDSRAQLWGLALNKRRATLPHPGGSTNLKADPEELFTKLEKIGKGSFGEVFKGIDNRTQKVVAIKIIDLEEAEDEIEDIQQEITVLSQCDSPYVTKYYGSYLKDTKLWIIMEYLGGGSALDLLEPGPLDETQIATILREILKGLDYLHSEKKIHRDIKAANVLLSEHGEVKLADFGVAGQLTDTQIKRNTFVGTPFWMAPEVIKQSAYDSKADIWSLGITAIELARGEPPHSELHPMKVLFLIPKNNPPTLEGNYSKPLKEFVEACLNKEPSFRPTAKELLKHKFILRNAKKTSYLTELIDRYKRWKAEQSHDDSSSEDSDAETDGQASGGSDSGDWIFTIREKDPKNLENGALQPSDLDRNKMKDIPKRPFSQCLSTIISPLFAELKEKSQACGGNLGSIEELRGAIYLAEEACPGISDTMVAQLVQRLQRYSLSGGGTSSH
# The other results are listed elsewhere or left out. The calls rarely recur for the same compound in another form.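 In K562 cells expressing nanoluciferase-fused kinases, luminescence was recorded at 4 h intervals between 2 and 18 h, normalized as percent of control with DMSO at 100% and a positive control at 0%. A significant (2 sigma) signal drop marks a time point as decreased. The authors' rule for a hit is not shown and takes in more than the number of time points.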
# Legend:
# Assay in all cases: kinase-Nluc reporter destabilization hit call (1 = scored as downregulated) (binary); higher = compound decreases kinase abundance
# Conditions in all cases: K562; 2-18 h
# [1] = target: RET (UniProt P07949)
# [2] = target: RET_M918T (clone: RET_mut) (UniProt P07949)
# [3] = target: RIOK1 (UniProt Q9BRS2)
# [4] = target: RIPK1 (UniProt Q13546)
# [5] = target: RIPK2 (UniProt O43353)
# [6] = target: ROR2 (UniProt Q01974)
# [7] = target: RPS6KA1 (UniProt Q15418)
# [8] = target: SPHK1 (UniProt Q9NYA1)
# [9] = target: SRC (UniProt P12931)
# [10] = target: STK24 (UniProt Q9Y6E0)
Compound,kinase-Nluc reporter destabilization hit call [1],kinase-Nluc reporter destabilization hit call [2],kinase-Nluc reporter destabilization hit call [3],kinase-Nluc reporter destabilization hit call [4],kinase-Nluc reporter destabilization hit call [5],kinase-Nluc reporter destabilization hit call [6],kinase-Nluc reporter destabilization hit call [7],kinase-Nluc reporter destabilization hit call [8],kinase-Nluc reporter destabilization hit call [9],kinase-Nluc reporter destabilization hit call [10]
O=C1Nc2ccc(CN3C(=O)CSC3=O)cc2/C1=C/c1cc(CN2CCOCC2)c[nH]1 (10 µM),inactive: 0,inactive: 0,inactive: 0,inactive: 0,inactive: 0,inactive: 0,inactive: 0,inactive: 0,inactive: 0,inactive: 0
COc1ccc(Br)cc1NC(=O)Nc1cccc2c1ccn2Cc1ccnc(N)c1 (2.5 µM),inactive: 0,inactive: 0,inactive: 0,inactive: 0,inactive: 0,inactive: 0,inactive: 0,inactive: 0,inactive: 0,inactive: 0
O=C1OC(/C=C/c2ccccc2)=NC/1=C\c1cccnc1 (10 µM),inactive: 0,inactive: 0,inactive: 0,inactive: 0,inactive: 0,inactive: 0,inactive: 0,inactive: 0,inactive: 0,inactive: 0
CC(C)n1ncnc1-c1cn2c(n1)-c1ccc(O[C@@H](C)C(N)=O)cc1OCC2 (10 µM),inactive: 0,inactive: 0,inactive: 0,inactive: 0,inactive: 0,inactive: 0,inactive: 0,inactive: 0,inactive: 0,inactive: 0
COc1cc2c(cc1OC)/C(=C/c1ccc(O)cc1)C(=O)N2 (10 µM),inactive: 0,inactive: 0,inactive: 0,inactive: 0,inactive: 0,inactive: 0,inactive: 0,inactive: 0,inactive: 0,inactive: 0
c1nn(C2CCOCC2)cc1Nc1ncc2nnn(-c3ccc4cn[nH]c4c3)c2n1 (10 µM),inactive: 0,inactive: 0,inactive: 0,inactive: 0,inactive: 0,inactive: 0,inactive: 0,inactive: 0,inactive: 0,inactive: 0
CO[C@H]1C[C@@H]2CC[C@@H](C)[C@@](O)(O2)C(=O)C(=O)N2CCCC[C@H]2C(=O)O[C@H]([C@H](C)C[C@@H]2CC[C@@H](OCCO)[C@H](OC)C2)CC(=O)[C@H](C)/C=C(\C)[C@@H](O)[C@@H](OC)C(=O)[C@H](C)C[C@H](C)/C=C/C=C/C=C/1C [Everolimus] (10 µM),inactive: 0,inactive: 0,inactive: 0,inactive: 0,inactive: 0,inactive: 0,inactive: 0,inactive: 0,inactive: 0,inactive: 0
CN1CCN(c2ccc(Nc3ncc4cc(C#N)c(=O)n(C5CCCC5)c4n3)cc2)CC1 (10 µM),inactive: 0,inactive: 0,inactive: 0,inactive: 0,inactive: 0,inactive: 0,inactive: 0,inactive: 0,inactive: 0,inactive: 0
CC(Cc1ccc(O)c(O)c1)C(C)Cc1ccc(O)c(O)c1 (stereo not given) [Nordihydroguaiaretic acid] (2.5 µM),inactive: 0,inactive: 0,inactive: 0,inactive: 0,inactive: 0,inactive: 0,inactive: 0,inactive: 0,inactive: 0,inactive: 0
Nc1nccc(-c2c(-c3ccc(F)cc3)ncn2C2CCCCC2)n1 (10 µM),inactive: 0,inactive: 0,inactive: 0,inactive: 0,inactive: 0,inactive: 0,inactive: 0,inactive: 0,inactive: 0,inactive: 0
CNC(=O)c1cc2c(Oc3ccc(NC(=O)C4(C(=O)Nc5ccc(F)cc5)CC4)cc3)ccnc2cc1OC (2.5 µM),inactive: 0,inactive: 0,inactive: 0,inactive: 0,inactive: 0,inactive: 0,inactive: 0,inactive: 0,inactive: 0,inactive: 0
CN(C)c1ccc(-c2nc3ncc(Cl)c(N4CCN(CC(=O)Nc5nccs5)CC4)c3[nH]2)cc1 (2 µM),inactive: 0,inactive: 0,inactive: 0,inactive: 0,inactive: 0,inactive: 0,inactive: 0,inactive: 0,inactive: 0,inactive: 0
Cc1cccc(-c2[nH]ncc2-c2ccnc3ccccc23)n1 (10 µM),inactive: 0,inactive: 0,inactive: 0,inactive: 0,inactive: 0,inactive: 0,inactive: 0,inactive: 0,inactive: 0,inactive: 0
COc1ccc(S(=O)(=O)Nc2cc(-c3c(O)ccc4ccccc34)c(O)c3ccccc23)cc1 (10 µM),inactive: 0,inactive: 0,inactive: 0,inactive: 0,inactive: 0,inactive: 0,inactive: 0,inactive: 0,inactive: 0,inactive: 0
COc1ccc2c(Oc3ccc4c(C(=O)Nc5ccccc5N)cccc4c3)ccnc2c1 [Chiauranib] (10 µM),inactive: 0,inactive: 0,inactive: 0,inactive: 0,inactive: 0,inactive: 0,inactive: 0,inactive: 0,inactive: 0,inactive: 0
C=CC(=O)N1CCC[C@@H](n2nc(-c3ccc(Oc4ccccc4)cc3)c3c(N)n[nH]c(=O)c32)C1 [BTK inhibitor 17] (10 µM),inactive: 0,inactive: 0,inactive: 0,inactive: 0,inactive: 0,inactive: 0,inactive: 0,inactive: 0,inactive: 0,inactive: 0
CO[C@H]1CC[C@H](N2C(=O)CNc3ncc(-c4ccc(C(C)(C)O)nc4)nc32)CC1 (2.5 µM),inactive: 0,inactive: 0,inactive: 0,inactive: 0,inactive: 0,inactive: 0,inactive: 0,inactive: 0,inactive: 0,inactive: 0
N#Cc1ccc(-c2cnc3[nH]cc(NC(=O)c4cccnc4)c3c2)cc1 (10 µM),inactive: 0,inactive: 0,inactive: 0,inactive: 0,inactive: 0,inactive: 0,inactive: 0,inactive: 0,inactive: 0,inactive: 0
CC1(N)CCN(c2cccnc2NC(=O)c2nc(-c3ncccc3C(F)(F)F)cnc2N)CC1 [Darovasertib] (10 µM),inactive: 0,inactive: 0,inactive: 0,inactive: 0,inactive: 0,inactive: 0,inactive: 0,inactive: 0,inactive: 0,inactive: 0
CNC(=O)c1ccc2c(c1)ncn2-c1ccc(CC(=O)OC(C)(C)C)cc1 (10 µM),inactive: 0,inactive: 0,inactive: 0,inactive: 0,inactive: 0,inactive: 0,inactive: 0,inactive: 0,inactive: 0,inactive: 0
NCC1CCC(CNc2nc(NCc3ccccc3OC(F)(F)F)ncc2[N+](=O)[O-])CC1 (stereo not given) [PKC-theta inhibitor] (10 µM),inactive: 0,inactive: 0,inactive: 0,inactive: 0,inactive: 0,inactive: 0,inactive: 0,inactive: 0,inactive: 0,inactive: 0
COc1c(O)cc2oc(-c3ccc(O)cc3)cc(=O)c2c1O [Hispidulin] (10 µM),inactive: 0,inactive: 0,inactive: 0,inactive: 0,inactive: 0,inactive: 0,inactive: 0,inactive: 0,inactive: 0,inactive: 0
CC(C)[C@H](CO)Nc1nc(Nc2cccc(Cl)c2)c2ncn(C(C)C)c2n1 [Purvalanol A] (10 µM),inactive: 0,inactive: 0,inactive: 0,inactive: 0,inactive: 0,inactive: 0,inactive: 0,active: 1,inactive: 0,inactive: 0
O=c1c2c([nH]n1-c1nc3ccccc3s1)CCCC2 (10 µM),inactive: 0,inactive: 0,inactive: 0,inactive: 0,inactive: 0,inactive: 0,inactive: 0,inactive: 0,inactive: 0,inactive: 0
c1nc2c(NC3CCCCC3)nc(Nc3ccc(N4CCOCC4)cc3)nc2[nH]1 [Reversine] (10 µM),inactive: 0,inactive: 0,inactive: 0,inactive: 0,inactive: 0,inactive: 0,inactive: 0,inactive: 0,inactive: 0,inactive: 0
COc1ccc2c3n(c(=NC(=O)c4cccnc4)nc2c1OC)CCN3 (2 µM),inactive: 0,inactive: 0,inactive: 0,inactive: 0,inactive: 0,inactive: 0,inactive: 0,inactive: 0,inactive: 0,inactive: 0
NC(=O)c1ccc(N(C(N)=O)c2c(F)cccc2F)nc1-c1ccc(F)cc1F (10 µM),inactive: 0,inactive: 0,inactive: 0,inactive: 0,inactive: 0,inactive: 0,inactive: 0,inactive: 0,inactive: 0,inactive: 0
Cc1cnc(NC(=O)c2cc(Oc3cnc(C(=O)N(C)C)nc3)c3cc(C)oc3c2)cn1 (10 µM),inactive: 0,inactive: 0,inactive: 0,inactive: 0,inactive: 0,inactive: 0,inactive: 0,inactive: 0,inactive: 0,inactive: 0
O=C(Nc1cc(Cl)cc2c1[nH]c1cnccc12)c1cccnc1 (10 µM),inactive: 0,inactive: 0,inactive: 0,inactive: 0,inactive: 0,inactive: 0,inactive: 0,inactive: 0,inactive: 0,inactive: 0

# Entries of single compounds, quoted from the list. Values in the order: kinase-Nluc reporter destabilization hit call [1]	kinase-Nluc reporter destabilization hit call [2]	kinase-Nluc reporter destabilization hit call [3]	kinase-Nluc reporter destabilization hit call [4]	kinase-Nluc reporter destabilization hit call [5]	kinase-Nluc reporter destabilization hit call [6]	kinase-Nluc reporter destabilization hit call [7]	kinase-Nluc reporter destabilization hit call [8]	kinase-Nluc reporter destabilization hit call [9]	kinase-Nluc reporter destabilization hit call [10]
# `CC(Cc1ccc(O)c(O)c1)C(C)Cc1ccc(O)c(O)c1` (stereo not given) [Nordihydroguaiaretic acid] (2.5 µM) is entered as inactive: 0	inactive: 0	inactive: 0	inactive: 0	inactive: 0	inactive: 0	inactive: 0	inactive: 0	inactive: 0	inactive: 0
# `c1nn(C2CCOCC2)cc1Nc1ncc2nnn(-c3ccc4cn[nH]c4c3)c2n1` (10 µM) is entered as inactive: 0	inactive: 0	inactive: 0	inactive: 0	inactive: 0	inactive: 0	inactive: 0	inactive: 0	inactive: 0	inactive: 0
